Taken from: PubChem BioAssay AID1159578 (Peter MacCallum Cancer Centre, 2015)

- Screen: 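Genome-wide hunt for genes controlling movement of lymphatic endothelial cells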 (primary screen)
- Cell system: human lymphatic endothelial cells
- Reagent: siRNA pool against human genes, 40 nM
- Timing: 48 h after transfection
- Detection: 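Cells stained with dye and imaged after a scratch; covered wound area and nuclei counted, duplicates averaged, migration set against mock wells and turned into a robust z-score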
- Direction: migration robust z-score: higher = faster migration into the scratch; nuclei per well: higher = more cells in the well
- Hit rule: 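Migration changed when robust z exceeds 2 or falls below -2 and mean nuclei number is at least 3300; otherwise not called changed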
- Calls: active = migration changed; inactive = no migration change, or too few cells
The whole screen tested about 18,000 reagents; this is an unselected part. Over the whole deposit, about 1,030 (5.7%) were called active. 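Inactive calls also include pools with fewer than 3300 nuclei, whose migration was not assessed.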 The raw values are shown without normalisation. Further read-outs or replicates are left out here.

migration robust z-score	nuclei per well, duplicate mean	Outcome	gene
-0.44	5796	inactive	TSR3 (TSR3 ribosome maturation factor)
0.08	5291	inactive	CD300LG (CD300 molecule like family member g)
-4.21	1832	inactive	HES4 (hes family bHLH transcription factor 4)
-2.26	4028	active	HIPK1 (homeodomain interacting protein kinase 1)
0.18	4772	inactive	RNF130 (ring finger protein 130)
-1.43	4900	inactive	KCNJ11 (potassium inwardly rectifying channel subfamily J member 11)
0.18	5172	inactive	GANAB (glucosidase II alpha subunit)
-1.62	6014	inactive	ABITRAM (actin binding transcription modulator)
-1.19	4648	inactive	UPK3B (uroplakin 3B)
-0.86	5727	inactive	C1QL4 (complement C1q like 4)
-0.86	4982	inactive	SLX4 (SLX4 structure-specific endonuclease subunit)
-0.72	4408	inactive	GML (glycosylphosphatidylinositol anchored molecule like)
-0.52	4704	inactive	MLIP (muscular LMNA interacting protein)
1.75	6436	inactive	OLFM2 (olfactomedin 2)
-1.4	4986	inactive	PTPRS (protein tyrosine phosphatase receptor type S)
-1.4	6017	inactive	MAGEA9 (MAGE family member A9)
0.86	4915	inactive	CEACAM8 (CEA cell adhesion molecule 8)
0.58	5788	inactive	PBDC1 (polysaccharide biosynthesis domain containing 1)
-0.7	6960	inactive	LRRC8B (leucine rich repeat containing 8 VRAC subunit B)
-1.27	6888	inactive	GOLGA8EP (golgin A8 family member E, pseudogene)
0.2	6793	inactive	TMEM9 (transmembrane protein 9)
-0.96	6150	inactive	CYBA (cytochrome b-245 alpha chain)
-1.72	5870	inactive	KIFC3 (kinesin family member C3)
0.19	6284	inactive	NLRC3 (NLR family CARD domain containing 3)
0.46	5858	inactive	ORM1 (orosomucoid 1)
0.22	5344	inactive	CEP170B (centrosomal protein 170B)
-0.18	5386	inactive	EPM2A (EPM2A glucan phosphatase, laforin)
0.64	5536	inactive	EXOSC7 (exosome component 7)
0.58	5653	inactive	C4BPB (complement component 4 binding protein beta)
0.8	5184	inactive	TRMT2B (tRNA methyltransferase 2B)
-0.9	5128	inactive	STX8 (syntaxin 8)
1.12	6064	inactive	STPG2 (sperm tail PG-rich repeat containing 2)
-1.66	4494	inactive	MYBL1 (MYB proto-oncogene like 1)
-0.17	5751	inactive	CLMB (calcimembrin)
-0.54	4086	inactive	BOLA2 (bolA family member 2)
-2.84	3411	active	PAQR5 (progestin and adipoQ receptor family member 5)
-0.14	5273	inactive	JRK (Jrk helix-turn-helix protein)
-0.67	7170	inactive	GAB4 (GRB2 associated binding protein family member 4)
0.24	6726	inactive	CALCR (calcitonin receptor)
-0.9	7622	inactive	AMT (aminomethyltransferase)
-0.43	4814	inactive	RPS24 (ribosomal protein S24)
-1.04	4979	inactive	TF (transferrin)
-1.69	4442	inactive	RMP24 (ribonuclease MRP subunit p24)
-1.16	4528	inactive	VGLL3 (vestigial like family member 3)
0.34	5872	inactive	E2F8 (E2F transcription factor 8)
-2.09	5214	active	CNFN (cornifelin)
0.15	5967	inactive	BHLHA15 (basic helix-loop-helix family member a15)
2.43	6354	active	KLHDC3 (kelch domain containing 3)
-2.02	5604	active	GFUS (GDP-L-fucose synthase)
0.88	5772	inactive	NKX3-2 (NK3 homeobox 2)
0.11	6825	inactive	RP2 (RP2 activator of ARL3 GTPase)
0.16	3066	inactive	SLC1A2
-0.54	5518	inactive	QRFP (pyroglutamylated RFamide peptide)
0.2	5134	inactive	IGF1 (insulin like growth factor 1)
-0.17	7629	inactive	USP19 (ubiquitin specific peptidase 19)
1.02	6266	inactive	TYRP1 (tyrosinase related protein 1)
-0.7	3918	inactive	RBFOX2 (RNA binding fox-1 homolog 2)

4 entries from above in another layout:
{"gene":"TSR3 (TSR3 ribosome maturation factor)","migration robust z-score":-0.44,"nuclei per well, duplicate mean":5796,"Outcome":"inactive"}
{"gene":"CD300LG (CD300 molecule like family member g)","migration robust z-score":0.08,"nuclei per well, duplicate mean":5291,"Outcome":"inactive"}
{"gene":"HES4 (hes family bHLH transcription factor 4)","migration robust z-score":-4.21,"nuclei per well, duplicate mean":1832,"Outcome":"inactive"}
{"gene":"HIPK1 (homeodomain interacting protein kinase 1)","migration robust z-score":-2.26,"nuclei per well, duplicate mean":4028,"Outcome":"active"}
